Test results taken from the supplement of paper PMC10849652.
This is one part of the list.

Chains of the proteins cited; added tags and fusions are not shown. Lines headed by an entry give the natural chain unless they say otherwise; changes in a name come on top.
UniProt Q9UN86: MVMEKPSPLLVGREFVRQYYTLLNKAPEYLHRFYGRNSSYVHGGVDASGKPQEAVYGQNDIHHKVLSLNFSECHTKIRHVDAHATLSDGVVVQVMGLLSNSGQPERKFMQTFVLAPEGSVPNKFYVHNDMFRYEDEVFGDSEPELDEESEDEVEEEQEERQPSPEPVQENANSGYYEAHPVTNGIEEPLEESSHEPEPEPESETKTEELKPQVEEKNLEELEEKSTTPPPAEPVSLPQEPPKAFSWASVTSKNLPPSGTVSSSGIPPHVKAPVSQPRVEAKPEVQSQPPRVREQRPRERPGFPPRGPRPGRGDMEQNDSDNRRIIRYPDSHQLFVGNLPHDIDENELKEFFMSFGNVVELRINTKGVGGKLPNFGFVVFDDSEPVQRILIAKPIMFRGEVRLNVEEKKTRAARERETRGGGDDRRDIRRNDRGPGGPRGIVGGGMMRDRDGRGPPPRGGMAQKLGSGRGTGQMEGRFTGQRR
UniProt Q8N2G8: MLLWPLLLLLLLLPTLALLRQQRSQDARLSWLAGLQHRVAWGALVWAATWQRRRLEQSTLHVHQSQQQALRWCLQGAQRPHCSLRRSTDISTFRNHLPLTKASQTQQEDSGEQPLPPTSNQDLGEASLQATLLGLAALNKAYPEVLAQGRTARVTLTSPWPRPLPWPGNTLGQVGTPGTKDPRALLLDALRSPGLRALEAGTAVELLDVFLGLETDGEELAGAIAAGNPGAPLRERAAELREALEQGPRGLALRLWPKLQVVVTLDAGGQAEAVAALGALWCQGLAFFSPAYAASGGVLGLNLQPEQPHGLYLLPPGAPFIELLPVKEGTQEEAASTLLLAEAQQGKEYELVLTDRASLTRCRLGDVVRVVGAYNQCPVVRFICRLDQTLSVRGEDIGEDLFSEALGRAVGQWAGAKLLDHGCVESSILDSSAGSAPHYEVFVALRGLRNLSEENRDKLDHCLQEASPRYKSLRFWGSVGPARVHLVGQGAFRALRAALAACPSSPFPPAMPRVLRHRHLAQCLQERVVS
UniProt Q13283, whole entry, looked up: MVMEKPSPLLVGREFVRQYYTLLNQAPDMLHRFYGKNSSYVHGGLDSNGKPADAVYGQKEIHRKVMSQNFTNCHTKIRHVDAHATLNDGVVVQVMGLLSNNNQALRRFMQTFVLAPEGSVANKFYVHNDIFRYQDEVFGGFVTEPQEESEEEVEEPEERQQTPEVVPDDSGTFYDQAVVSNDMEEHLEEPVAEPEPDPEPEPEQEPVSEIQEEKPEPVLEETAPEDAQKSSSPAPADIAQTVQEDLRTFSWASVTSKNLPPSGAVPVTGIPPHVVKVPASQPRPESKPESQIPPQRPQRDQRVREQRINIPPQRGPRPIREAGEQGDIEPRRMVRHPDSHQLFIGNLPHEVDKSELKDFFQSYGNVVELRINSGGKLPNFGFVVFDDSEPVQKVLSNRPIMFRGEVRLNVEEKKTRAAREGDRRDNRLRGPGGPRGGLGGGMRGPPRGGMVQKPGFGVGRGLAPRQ
UniProt Q7Z7M9: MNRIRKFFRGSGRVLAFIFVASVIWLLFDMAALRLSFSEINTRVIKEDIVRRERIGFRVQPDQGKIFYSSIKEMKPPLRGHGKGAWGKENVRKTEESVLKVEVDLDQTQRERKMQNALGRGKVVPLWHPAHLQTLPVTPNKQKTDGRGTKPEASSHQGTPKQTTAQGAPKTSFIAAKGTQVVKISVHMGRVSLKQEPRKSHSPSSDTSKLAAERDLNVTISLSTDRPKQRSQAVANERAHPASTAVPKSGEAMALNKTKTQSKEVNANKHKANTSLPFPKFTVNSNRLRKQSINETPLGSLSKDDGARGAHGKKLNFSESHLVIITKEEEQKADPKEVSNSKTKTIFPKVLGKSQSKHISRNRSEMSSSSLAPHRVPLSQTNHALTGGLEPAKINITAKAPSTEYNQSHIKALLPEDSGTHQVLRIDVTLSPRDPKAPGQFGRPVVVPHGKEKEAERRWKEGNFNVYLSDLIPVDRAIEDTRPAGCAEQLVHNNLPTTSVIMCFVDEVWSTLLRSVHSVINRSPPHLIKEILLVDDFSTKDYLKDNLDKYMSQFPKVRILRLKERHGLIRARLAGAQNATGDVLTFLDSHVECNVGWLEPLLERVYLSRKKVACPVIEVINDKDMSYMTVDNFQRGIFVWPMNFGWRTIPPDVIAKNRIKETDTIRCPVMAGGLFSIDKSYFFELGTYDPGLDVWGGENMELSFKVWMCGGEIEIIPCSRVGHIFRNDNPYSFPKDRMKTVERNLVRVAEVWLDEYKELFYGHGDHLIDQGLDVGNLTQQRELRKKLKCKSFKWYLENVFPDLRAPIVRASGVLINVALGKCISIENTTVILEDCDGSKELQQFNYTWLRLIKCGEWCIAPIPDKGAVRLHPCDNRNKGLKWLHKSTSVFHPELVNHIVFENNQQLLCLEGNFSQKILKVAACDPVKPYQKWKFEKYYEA
UniProt Q8IXK2: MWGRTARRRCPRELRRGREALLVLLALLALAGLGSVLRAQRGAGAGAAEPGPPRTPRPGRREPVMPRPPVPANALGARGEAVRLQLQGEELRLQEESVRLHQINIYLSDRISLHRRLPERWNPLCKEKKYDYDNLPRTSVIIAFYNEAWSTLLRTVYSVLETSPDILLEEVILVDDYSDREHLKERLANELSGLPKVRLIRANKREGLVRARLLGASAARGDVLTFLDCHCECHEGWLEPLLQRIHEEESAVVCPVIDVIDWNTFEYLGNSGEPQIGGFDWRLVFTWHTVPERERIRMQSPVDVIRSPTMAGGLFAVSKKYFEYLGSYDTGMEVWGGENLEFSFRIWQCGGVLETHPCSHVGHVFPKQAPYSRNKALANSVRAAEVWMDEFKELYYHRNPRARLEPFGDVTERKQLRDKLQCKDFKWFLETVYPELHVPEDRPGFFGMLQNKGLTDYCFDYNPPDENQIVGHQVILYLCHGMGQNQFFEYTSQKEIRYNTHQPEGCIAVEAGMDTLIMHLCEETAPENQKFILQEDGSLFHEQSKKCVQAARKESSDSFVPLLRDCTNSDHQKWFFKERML
UniProt Q92947: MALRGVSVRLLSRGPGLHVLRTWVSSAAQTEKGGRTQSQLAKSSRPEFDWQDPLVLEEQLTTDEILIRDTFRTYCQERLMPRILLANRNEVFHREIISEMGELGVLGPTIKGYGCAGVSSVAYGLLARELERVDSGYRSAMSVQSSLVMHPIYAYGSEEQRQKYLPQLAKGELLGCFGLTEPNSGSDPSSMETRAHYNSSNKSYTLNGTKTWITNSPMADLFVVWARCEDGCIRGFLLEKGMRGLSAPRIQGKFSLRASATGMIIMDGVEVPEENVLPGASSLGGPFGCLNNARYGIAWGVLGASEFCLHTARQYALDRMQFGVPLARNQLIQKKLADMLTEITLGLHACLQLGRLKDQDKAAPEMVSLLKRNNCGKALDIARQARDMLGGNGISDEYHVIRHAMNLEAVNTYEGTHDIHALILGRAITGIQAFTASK
UniProt O75223: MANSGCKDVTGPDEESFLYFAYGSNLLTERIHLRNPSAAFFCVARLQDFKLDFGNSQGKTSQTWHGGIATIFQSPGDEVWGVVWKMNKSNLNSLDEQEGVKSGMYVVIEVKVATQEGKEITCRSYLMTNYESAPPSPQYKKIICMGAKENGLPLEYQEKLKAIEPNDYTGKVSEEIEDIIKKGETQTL
UniProt Q7L5D6: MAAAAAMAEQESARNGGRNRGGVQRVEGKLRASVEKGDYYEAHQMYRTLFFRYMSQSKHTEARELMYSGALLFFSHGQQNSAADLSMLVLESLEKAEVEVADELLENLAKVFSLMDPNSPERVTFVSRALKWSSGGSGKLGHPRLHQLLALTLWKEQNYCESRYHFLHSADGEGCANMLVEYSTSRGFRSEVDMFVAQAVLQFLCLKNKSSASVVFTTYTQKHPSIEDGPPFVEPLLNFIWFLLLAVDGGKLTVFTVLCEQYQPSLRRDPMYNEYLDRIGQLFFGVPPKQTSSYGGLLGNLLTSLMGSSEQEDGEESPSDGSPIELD
UniProt P0CL80: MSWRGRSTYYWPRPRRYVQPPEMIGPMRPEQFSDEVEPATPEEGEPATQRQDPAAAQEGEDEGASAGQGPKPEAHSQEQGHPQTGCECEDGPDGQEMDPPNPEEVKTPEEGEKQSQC
UniProt O95749: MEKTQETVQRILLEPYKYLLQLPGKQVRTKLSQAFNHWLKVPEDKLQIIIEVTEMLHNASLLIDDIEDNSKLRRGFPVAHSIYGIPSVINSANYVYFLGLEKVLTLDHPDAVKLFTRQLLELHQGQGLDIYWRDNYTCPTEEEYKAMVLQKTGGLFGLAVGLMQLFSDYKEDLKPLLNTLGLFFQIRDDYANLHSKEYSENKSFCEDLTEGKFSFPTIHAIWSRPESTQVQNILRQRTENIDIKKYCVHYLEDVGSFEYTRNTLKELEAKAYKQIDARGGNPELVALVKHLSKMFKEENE
UniProt Q06210: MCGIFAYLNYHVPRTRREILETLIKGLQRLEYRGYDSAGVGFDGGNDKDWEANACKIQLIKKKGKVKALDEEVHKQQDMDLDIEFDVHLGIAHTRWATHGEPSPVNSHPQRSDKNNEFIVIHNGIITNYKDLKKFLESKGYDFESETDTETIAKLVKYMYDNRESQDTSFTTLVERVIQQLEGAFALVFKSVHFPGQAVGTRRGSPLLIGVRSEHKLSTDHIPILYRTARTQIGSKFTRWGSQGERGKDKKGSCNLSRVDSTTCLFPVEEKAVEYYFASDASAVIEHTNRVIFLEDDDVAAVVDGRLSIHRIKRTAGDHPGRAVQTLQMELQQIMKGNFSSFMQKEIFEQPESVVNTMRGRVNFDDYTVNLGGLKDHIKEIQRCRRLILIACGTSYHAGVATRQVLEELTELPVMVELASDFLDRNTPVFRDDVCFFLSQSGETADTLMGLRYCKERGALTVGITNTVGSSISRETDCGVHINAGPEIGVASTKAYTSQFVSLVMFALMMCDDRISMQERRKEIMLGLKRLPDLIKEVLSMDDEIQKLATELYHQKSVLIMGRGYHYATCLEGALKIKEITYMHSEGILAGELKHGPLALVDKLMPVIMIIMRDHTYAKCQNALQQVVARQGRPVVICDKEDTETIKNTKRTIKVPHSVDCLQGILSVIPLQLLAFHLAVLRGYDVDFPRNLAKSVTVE
UniProt Q96I24: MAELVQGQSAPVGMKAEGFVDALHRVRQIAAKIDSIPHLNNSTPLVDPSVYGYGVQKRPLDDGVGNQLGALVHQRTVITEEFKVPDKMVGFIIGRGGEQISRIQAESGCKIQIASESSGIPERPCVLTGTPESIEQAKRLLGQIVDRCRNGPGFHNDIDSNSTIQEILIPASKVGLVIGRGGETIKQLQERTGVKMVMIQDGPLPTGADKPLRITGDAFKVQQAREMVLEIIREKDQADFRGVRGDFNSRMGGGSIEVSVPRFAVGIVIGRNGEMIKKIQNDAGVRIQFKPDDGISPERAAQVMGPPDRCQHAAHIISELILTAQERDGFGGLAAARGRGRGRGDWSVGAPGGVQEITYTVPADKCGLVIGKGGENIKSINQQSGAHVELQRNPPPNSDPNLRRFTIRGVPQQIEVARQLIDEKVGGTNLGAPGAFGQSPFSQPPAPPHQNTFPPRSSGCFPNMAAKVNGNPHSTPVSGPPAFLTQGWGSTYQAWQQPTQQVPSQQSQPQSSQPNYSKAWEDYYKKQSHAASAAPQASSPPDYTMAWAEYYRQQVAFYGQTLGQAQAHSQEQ
UniProt P02792: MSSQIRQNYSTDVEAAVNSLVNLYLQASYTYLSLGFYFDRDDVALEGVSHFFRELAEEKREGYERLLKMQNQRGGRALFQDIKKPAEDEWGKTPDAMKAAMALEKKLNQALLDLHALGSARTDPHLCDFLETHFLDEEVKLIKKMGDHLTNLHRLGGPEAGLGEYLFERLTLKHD
UniProt O15117, whole entry, looked up: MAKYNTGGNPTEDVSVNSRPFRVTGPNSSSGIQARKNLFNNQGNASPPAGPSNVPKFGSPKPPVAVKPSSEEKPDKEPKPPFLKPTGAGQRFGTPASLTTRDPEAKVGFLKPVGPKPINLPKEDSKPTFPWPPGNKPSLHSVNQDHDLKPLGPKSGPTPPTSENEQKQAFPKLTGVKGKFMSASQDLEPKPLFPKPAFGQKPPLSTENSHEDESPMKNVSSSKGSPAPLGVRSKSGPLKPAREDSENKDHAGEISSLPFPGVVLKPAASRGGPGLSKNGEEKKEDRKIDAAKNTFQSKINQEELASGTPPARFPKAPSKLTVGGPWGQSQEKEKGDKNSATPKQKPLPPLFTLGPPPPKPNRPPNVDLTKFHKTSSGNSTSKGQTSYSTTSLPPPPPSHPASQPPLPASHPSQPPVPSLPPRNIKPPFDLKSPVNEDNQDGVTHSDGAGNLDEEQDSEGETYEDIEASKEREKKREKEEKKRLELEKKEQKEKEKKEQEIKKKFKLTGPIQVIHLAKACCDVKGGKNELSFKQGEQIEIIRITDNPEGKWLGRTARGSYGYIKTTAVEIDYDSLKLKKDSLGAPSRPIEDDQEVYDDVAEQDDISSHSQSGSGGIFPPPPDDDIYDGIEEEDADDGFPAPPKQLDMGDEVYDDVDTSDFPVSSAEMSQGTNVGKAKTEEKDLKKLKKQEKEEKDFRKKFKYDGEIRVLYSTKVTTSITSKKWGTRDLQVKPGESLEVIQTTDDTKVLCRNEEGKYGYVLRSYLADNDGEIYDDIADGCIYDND

compound: CCN(CCCOc1ccc2c(Nc3cc(CC(=O)Nc4cccc(F)c4)[nH]n3)ncnc2c1)CCOP(=O)(O)O [barasertib]; assay: log2 fold change, soluble protein after heating vs DMSO (PISA); higher = thermal stabilisation; K562 cells, 10 uM, 30 min; active = over 0.2 and 3.5 SD of the protein, either way, in both replicates (recomputed)
Method in brief: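 K562 cells at 2×10^6 cells/mL were given 10 μM compound for 30 min. Aliquots then went through 3 min of heating across 48°C-58°C, were pooled, and were extracted in PBS with 0.5% NP-40 at 4°C, and the supernatant after 21,000xg for 90 min was quantified by TMTpro 16plex LC-MS/MS with channel sums equalised. Thermal stability relative to control samples, from duplicates, is given as log2 fold change.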

log2 fold change, inactive:
G3BP2 (UniProt Q9UN86) -0.134
GHDC (UniProt Q8N2G8) -0.008
G3BP1 (UniProt Q13283) -0.118
FUS (UniProt P35637) -0.091
GDAP1 (UniProt Q8TB36) 0.014
GALT (UniProt P07902) 0.056
GALNT5 (UniProt Q7Z7M9) 0.02
GALNT12 (UniProt Q8IXK2) -0.041
GCDH (UniProt Q92947) 0.005
GALK2 (UniProt Q01415) 0.005
GGCT (UniProt O75223) 0.011
GET4 (UniProt Q7L5D6) 0.044
GALNT7 (UniProt Q86SF2) 0.001
GCHFR (UniProt P30047) -0.003
GFM1 (UniProt Q96RP9) 0.062
GGA1 isoform 6 (UniProt Q9UJY5) 0.023
FUBP1 isoform 2 (UniProt Q96AE4) -0.006
GADD45GIP1 (UniProt Q8TAE8) -0.024
GCLM (UniProt P48507) 0.066
GART (UniProt C9JZG2) -0.084
GEMIN5 (UniProt Q8TEQ6) 0.019
GCAT isoform 2 (UniProt O75600) 0.006
GAGE12F (UniProt P0CL80) 0.01
GALNS (UniProt P34059) 0.016
GGPS1 (UniProt O95749) 0
FUCA2 (UniProt Q9BTY2) -0.01
GFPT1 (UniProt Q06210) -0.013
FUBP3 (UniProt Q96I24) -0.012
GCSH (UniProt P23434) -0.095
FTL (UniProt P02792) -0.01
FYB1 isoform 3 (UniProt O15117) 0.052
FURIN (UniProt P09958) -0.02
GGNBP2 (UniProt Q9H3C7) -0.061

Random excerpt: two entries already listed
log2 fold change, inactive:
GCAT isoform 2 (UniProt O75600) 0.006
GCLM (UniProt P48507) 0.066
